Results are given in words; binding and its absence hold for the method and conditions named. Binding seen in cells or lysates may run through a third protein. Some results given as binding are weak or reduced against the parent protein; the word gives no strength.
T1: NAT10 (human (endogenous in Jurkat)) (UniProt Q9H0A0)
T1 sequence: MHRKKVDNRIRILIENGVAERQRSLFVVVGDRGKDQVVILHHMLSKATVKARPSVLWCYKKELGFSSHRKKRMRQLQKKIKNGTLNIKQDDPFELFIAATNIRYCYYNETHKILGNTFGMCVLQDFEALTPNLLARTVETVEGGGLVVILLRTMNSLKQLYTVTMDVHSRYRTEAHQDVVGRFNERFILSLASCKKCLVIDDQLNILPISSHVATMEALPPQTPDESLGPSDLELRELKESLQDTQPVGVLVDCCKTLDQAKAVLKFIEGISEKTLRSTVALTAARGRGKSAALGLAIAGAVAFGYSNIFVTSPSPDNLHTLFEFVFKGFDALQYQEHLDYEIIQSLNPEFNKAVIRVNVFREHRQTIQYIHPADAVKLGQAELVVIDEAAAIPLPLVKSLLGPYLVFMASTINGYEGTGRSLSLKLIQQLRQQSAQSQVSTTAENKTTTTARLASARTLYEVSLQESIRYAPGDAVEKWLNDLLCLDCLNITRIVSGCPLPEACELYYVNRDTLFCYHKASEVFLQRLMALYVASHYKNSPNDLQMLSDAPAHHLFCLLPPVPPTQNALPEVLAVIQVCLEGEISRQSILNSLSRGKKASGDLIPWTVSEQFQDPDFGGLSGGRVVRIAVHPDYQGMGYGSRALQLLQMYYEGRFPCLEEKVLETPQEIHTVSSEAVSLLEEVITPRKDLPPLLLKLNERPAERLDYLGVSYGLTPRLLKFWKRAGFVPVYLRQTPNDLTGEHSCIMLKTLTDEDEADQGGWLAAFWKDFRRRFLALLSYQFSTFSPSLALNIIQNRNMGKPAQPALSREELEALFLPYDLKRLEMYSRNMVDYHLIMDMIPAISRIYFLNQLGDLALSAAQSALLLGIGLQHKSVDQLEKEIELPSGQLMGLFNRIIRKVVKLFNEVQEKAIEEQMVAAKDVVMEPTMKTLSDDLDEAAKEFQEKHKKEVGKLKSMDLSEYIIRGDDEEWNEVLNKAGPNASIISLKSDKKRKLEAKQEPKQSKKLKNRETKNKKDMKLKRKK

Amino acid sequences for entries named in this document (tags omitted).
UniProt Q13547: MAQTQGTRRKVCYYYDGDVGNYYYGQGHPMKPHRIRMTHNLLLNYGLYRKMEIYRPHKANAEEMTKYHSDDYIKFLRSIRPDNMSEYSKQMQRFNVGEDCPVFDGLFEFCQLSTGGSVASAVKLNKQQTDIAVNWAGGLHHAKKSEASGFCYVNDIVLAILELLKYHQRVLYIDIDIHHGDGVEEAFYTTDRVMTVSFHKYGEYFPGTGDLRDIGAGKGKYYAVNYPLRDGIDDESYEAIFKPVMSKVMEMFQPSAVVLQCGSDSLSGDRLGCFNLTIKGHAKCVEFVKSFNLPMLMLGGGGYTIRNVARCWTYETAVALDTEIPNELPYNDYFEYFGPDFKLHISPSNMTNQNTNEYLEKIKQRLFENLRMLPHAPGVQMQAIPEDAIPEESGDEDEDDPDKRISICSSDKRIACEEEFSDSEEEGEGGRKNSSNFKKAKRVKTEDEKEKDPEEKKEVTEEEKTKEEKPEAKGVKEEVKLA

T2: MIDEAS (human (endogenous in Jurkat)) (UniProt Q6PJG2)
T2 sequence: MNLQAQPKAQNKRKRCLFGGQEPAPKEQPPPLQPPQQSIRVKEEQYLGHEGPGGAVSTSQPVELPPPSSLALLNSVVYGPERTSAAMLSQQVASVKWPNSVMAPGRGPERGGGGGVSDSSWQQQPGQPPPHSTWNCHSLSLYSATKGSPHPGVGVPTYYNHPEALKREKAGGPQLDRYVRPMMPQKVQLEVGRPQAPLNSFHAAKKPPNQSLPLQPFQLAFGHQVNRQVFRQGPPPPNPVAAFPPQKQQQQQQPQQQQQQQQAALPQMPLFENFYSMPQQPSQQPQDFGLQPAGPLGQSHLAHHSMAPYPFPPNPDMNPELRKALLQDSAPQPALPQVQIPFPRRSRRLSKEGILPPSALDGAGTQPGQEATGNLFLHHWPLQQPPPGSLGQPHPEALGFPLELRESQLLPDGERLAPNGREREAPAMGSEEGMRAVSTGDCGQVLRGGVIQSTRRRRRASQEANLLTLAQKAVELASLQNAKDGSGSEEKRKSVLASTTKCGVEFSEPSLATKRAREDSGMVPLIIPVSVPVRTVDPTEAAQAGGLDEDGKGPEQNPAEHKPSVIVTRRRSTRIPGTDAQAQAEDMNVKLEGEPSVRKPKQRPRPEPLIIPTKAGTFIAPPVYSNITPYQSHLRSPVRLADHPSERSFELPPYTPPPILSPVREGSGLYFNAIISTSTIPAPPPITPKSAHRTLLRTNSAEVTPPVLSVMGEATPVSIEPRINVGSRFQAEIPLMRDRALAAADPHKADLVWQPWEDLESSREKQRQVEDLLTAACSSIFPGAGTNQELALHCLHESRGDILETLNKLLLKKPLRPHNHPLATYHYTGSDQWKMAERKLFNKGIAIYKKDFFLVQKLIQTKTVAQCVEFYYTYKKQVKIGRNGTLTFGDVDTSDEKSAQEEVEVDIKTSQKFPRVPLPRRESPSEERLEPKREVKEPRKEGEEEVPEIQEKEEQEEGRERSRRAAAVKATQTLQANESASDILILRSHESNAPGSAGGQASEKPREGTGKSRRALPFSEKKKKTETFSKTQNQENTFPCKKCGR

B1: MIDEAS (protein, UniProt Q6PJG2 1-1045)
chain: T2 sequence

How the values were obtained:
[1] = molecular target: T1, NAT10 (human (endogenous in Jurkat)); assay: co-IP
[2] = molecular target: T2, MIDEAS (human (endogenous in Jurkat)); assay: co-IP

Molecule | binding [1] | binding [2]
HDAC1 (from UniProt Q13547 1-482) (enzyme) | binds | binds
B1 | binds | –

Reference: article doi:10.1101/2023.11.14.567009
